We go through three molecules from paper PMC11300639.

Assay [1] deals with T1, TSC1 (human (endogenous in 786-O and A498)) (UniProt Q92574).
T1 sequence: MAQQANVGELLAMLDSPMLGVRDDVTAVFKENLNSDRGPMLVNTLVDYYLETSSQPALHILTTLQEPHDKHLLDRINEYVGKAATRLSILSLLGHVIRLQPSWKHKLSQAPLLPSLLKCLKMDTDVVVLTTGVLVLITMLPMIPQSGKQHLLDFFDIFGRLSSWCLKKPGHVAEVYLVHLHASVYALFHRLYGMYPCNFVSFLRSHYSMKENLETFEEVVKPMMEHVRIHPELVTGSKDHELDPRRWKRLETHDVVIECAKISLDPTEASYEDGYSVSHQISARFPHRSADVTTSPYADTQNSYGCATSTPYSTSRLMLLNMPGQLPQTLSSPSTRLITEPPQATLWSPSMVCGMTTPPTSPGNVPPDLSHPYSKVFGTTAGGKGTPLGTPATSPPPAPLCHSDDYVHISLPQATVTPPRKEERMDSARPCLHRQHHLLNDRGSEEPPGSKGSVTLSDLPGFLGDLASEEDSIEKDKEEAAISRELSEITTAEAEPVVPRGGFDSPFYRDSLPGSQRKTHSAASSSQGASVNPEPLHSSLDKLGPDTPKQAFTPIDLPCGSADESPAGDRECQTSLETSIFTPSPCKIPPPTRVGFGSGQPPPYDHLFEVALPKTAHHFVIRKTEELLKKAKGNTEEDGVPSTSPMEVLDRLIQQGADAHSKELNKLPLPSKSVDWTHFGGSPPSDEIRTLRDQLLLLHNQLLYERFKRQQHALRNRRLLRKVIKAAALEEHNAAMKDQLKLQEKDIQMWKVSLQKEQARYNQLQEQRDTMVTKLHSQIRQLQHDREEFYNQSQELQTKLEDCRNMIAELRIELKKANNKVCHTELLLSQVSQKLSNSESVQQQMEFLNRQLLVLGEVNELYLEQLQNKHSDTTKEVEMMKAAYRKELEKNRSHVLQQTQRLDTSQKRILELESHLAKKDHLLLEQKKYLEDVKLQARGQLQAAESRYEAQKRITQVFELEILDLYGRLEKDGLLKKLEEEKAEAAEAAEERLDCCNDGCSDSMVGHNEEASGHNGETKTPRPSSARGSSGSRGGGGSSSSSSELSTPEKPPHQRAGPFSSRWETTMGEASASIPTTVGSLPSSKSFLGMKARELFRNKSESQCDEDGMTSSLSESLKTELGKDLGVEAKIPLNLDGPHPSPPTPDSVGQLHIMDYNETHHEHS
Put plainly: proximity ligation; Proximity Ligation Assay (PLA) in 786-O cells with the indicated antibodies.

Assay [2] concerns the target T1, TSC1 (human (endogenous in 786-O and A498)). As to the kind of experiment: co-IP; endogenous proteins in 786-O and A498 cells; immunoprecipitation with TSC1 or RNF26 antibodies (CDK4 or RNF26 antibodies for CDK4 with RNF26); for TSC1 with RNF26 in 786-O also after phosphatase or palbociclib treatment, CDK4 overexpression or CDK4 siRNA.
The target in assay [3] is T2, GST-RNF26-N (1-379 aa) (human) (UniProt Q9BY78).
T2 sequence: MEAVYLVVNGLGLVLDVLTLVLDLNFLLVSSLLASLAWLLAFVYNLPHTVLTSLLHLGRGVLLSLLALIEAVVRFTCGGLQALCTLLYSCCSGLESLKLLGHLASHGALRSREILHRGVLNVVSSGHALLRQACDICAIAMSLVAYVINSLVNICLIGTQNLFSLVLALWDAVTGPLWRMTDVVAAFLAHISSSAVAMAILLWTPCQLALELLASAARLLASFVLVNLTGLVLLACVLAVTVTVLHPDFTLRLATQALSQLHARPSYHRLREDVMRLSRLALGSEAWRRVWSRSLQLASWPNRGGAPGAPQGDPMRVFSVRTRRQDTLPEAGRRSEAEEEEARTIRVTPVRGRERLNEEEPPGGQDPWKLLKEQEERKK
Put plainly: pull-down; GST pull-down with recombinant proteins of RNF26; source of TSC1 not told.

In assay [4] the target is wild-type RNF26 (transfected) (human) (UniProt Q9BY78). Put plainly: co-IP; 786-O cells treated with the indicated plasmids (wild-type RNF26 or RNF26 T348A) or chemicals (palbociclib) for 48 h; immunoprecipitation and western blotting. On the technique in general: Immunoblotting shows a protein as a band on a membrane.
For assay [5], the target named is RNF26 T348A (threonine to alanine) mutant (human) (UniProt Q9BY78). Described as above.

No constants are given. Whether binding was seen depends on the method and setting. Binding seen in cells or lysates may run through a third protein. Some binding calls cover weakened binding; strength is not graded here. For some assays here: Tags and fused reporters may be left off the sequences shown.

Turning to “RING finger protein 26 (RNF26) (from UniProt Q9BY78 1-433)”, the binding entry in assay [1] and in assay [2] was “binds” each time.

B1: TSC1 (in the GST pull-down assays) (protein, UniProt Q92574 1-1164)
chain: MAQQANVGELLAMLDSPMLGVRDDVTAVFKENLNSDRGPMLVNTLVDYYLETSSQPALHILTTLQEPHDKHLLDRINEYVGKAATRLSILSLLGHVIRLQPSWKHKLSQAPLLPSLLKCLKMDTDVVVLTTGVLVLITMLPMIPQSGKQHLLDFFDIFGRLSSWCLKKPGHVAEVYLVHLHASVYALFHRLYGMYPCNFVSFLRSHYSMKENLETFEEVVKPMMEHVRIHPELVTGSKDHELDPRRWKRLETHDVVIECAKISLDPTEASYEDGYSVSHQISARFPHRSADVTTSPYADTQNSYGCATSTPYSTSRLMLLNMPGQLPQTLSSPSTRLITEPPQATLWSPSMVCGMTTPPTSPGNVPPDLSHPYSKVFGTTAGGKGTPLGTPATSPPPAPLCHSDDYVHISLPQATVTPPRKEERMDSARPCLHRQHHLLNDRGSEEPPGSKGSVTLSDLPGFLGDLASEEDSIEKDKEEAAISRELSEITTAEAEPVVPRGGFDSPFYRDSLPGSQRKTHSAASSSQGASVNPEPLHSSLDKLGPDTPKQAFTPIDLPCGSADESPAGDRECQTSLETSIFTPSPCKIPPPTRVGFGSGQPPPYDHLFEVALPKTAHHFVIRKTEELLKKAKGNTEEDGVPSTSPMEVLDRLIQQGADAHSKELNKLPLPSKSVDWTHFGGSPPSDEIRTLRDQLLLLHNQLLYERFKRQQHALRNRRLLRKVIKAAALEEHNAAMKDQLKLQEKDIQMWKVSLQKEQARYNQLQEQRDTMVTKLHSQIRQLQHDREEFYNQSQELQTKLEDCRNMIAELRIELKKANNKVCHTELLLSQVSQKLSNSESVQQQMEFLNRQLLVLGEVNELYLEQLQNKHSDTTKEVEMMKAAYRKELEKNRSHVLQQTQRLDTSQKRILELESHLAKKDHLLLEQKKYLEDVKLQARGQLQAAESRYEAQKRITQVFELEILDLYGRLEKDGLLKKLEEEKAEAAEAAEERLDCCNDGCSDSMVGHNEEASGHNGETKTPRPSSARGSSGSRGGGGSSSSSSELSTPEKPPHQRAGPFSSRWETTMGEASASIPTTVGSLPSSKSFLGMKARELFRNKSESQCDEDGMTSSLSESLKTELGKDLGVEAKIPLNLDGPHPSPPTPDSVGQLHIMDYNETHHEHS
With B1, the binding entry in assay [3] is reported as “binds”.

B2: TSC1 (protein, UniProt Q92574 1-1164)
chain: MAQQANVGELLAMLDSPMLGVRDDVTAVFKENLNSDRGPMLVNTLVDYYLETSSQPALHILTTLQEPHDKHLLDRINEYVGKAATRLSILSLLGHVIRLQPSWKHKLSQAPLLPSLLKCLKMDTDVVVLTTGVLVLITMLPMIPQSGKQHLLDFFDIFGRLSSWCLKKPGHVAEVYLVHLHASVYALFHRLYGMYPCNFVSFLRSHYSMKENLETFEEVVKPMMEHVRIHPELVTGSKDHELDPRRWKRLETHDVVIECAKISLDPTEASYEDGYSVSHQISARFPHRSADVTTSPYADTQNSYGCATSTPYSTSRLMLLNMPGQLPQTLSSPSTRLITEPPQATLWSPSMVCGMTTPPTSPGNVPPDLSHPYSKVFGTTAGGKGTPLGTPATSPPPAPLCHSDDYVHISLPQATVTPPRKEERMDSARPCLHRQHHLLNDRGSEEPPGSKGSVTLSDLPGFLGDLASEEDSIEKDKEEAAISRELSEITTAEAEPVVPRGGFDSPFYRDSLPGSQRKTHSAASSSQGASVNPEPLHSSLDKLGPDTPKQAFTPIDLPCGSADESPAGDRECQTSLETSIFTPSPCKIPPPTRVGFGSGQPPPYDHLFEVALPKTAHHFVIRKTEELLKKAKGNTEEDGVPSTSPMEVLDRLIQQGADAHSKELNKLPLPSKSVDWTHFGGSPPSDEIRTLRDQLLLLHNQLLYERFKRQQHALRNRRLLRKVIKAAALEEHNAAMKDQLKLQEKDIQMWKVSLQKEQARYNQLQEQRDTMVTKLHSQIRQLQHDREEFYNQSQELQTKLEDCRNMIAELRIELKKANNKVCHTELLLSQVSQKLSNSESVQQQMEFLNRQLLVLGEVNELYLEQLQNKHSDTTKEVEMMKAAYRKELEKNRSHVLQQTQRLDTSQKRILELESHLAKKDHLLLEQKKYLEDVKLQARGQLQAAESRYEAQKRITQVFELEILDLYGRLEKDGLLKKLEEEKAEAAEAAEERLDCCNDGCSDSMVGHNEEASGHNGETKTPRPSSARGSSGSRGGGGSSSSSSELSTPEKPPHQRAGPFSSRWETTMGEASASIPTTVGSLPSSKSFLGMKARELFRNKSESQCDEDGMTSSLSESLKTELGKDLGVEAKIPLNLDGPHPSPPTPDSVGQLHIMDYNETHHEHS
B2: the binding result in assay [4] and in assay [5] was “binds” in each case.
